Laboratory results published in PubChem BioAssay AID248 (DTP/NCI, 2004).
The list does not hold the whole screen: it is rich in T/C values a quarter to a half above the control, in often repeated tests (any T/C) and in doses without a T/C. Other doses and runs of a compound stand elsewhere. T/C is the treated group as % of the vehicle group. Some entries give survivors of the animals treated and no T/C: the source holds a T/C of zero for them, seemingly a mark for toxic or unscored doses. Some survivor counts are full or nearly so, which does not show that the dose was tolerated: the source hardly ever lists a survival T/C far under the control, and the zero likely stands for such cases as well. Survivors were counted at the toxicity check, usually on the fifth day, unless a day is given; later deaths do not show. Schedule codes are those of the source, taken here to give the interval after Q, in days (D) or hours (H), and the number of doses after X. Some schedule codes hold Z or #, which are not explained here. For survival time, the PubChem record calls one and a half times the control and up active, and a quarter to a half above the control has no call in these data; cut-offs in other NCI protocols can differ. Some entries were tested several times; the results are listed from low to high. Some T/C values carry the count of animals alive at the toxicity check (mostly the fifth day); without a count, all were alive then.

Tested on: L1210 leukemia ip in BDF1 mice, survival T/C
Assay: NCI In Vivo Anticancer Drug Screen. Data for tumor model L1210 Leukemia (intraperitoneal) in B6D2F1 (BDF1) mice
Conditions: T/C endpoint: mean survival time, higher T/C = longer survival

For O=C(O)c1[nH]c(=O)[nH]c(=O)c1F, which T/C (dose: 1.5 mg/kg/injection, schedule: Q01DX005 (oral), vehicle: saline) is on record?
The T/C was 136 % of control.

And the T/C (dose: 1.5 mg/kg/injection, schedule: Q01DX015 (ip), vehicle: saline)?
The T/C was 143 and 148 % of control.

What about the T/C (dose: 1.5 mg/kg/injection, schedule: Q01DX015 (oral), vehicle: saline) of the same compound?
Its T/C is 142 % of control.

What about the T/C (dose: 2.0 mg/kg/injection, schedule: Q01DX009 (ip), vehicle: saline with Tween-80) of the same compound?
Its T/C is 127 % of control.

And the T/C (dose: 2.0 mg/kg/injection, schedule: Q01DX009 (ip), vehicle: saline)?
Its T/C is 133 % of control.

What about the T/C (dose: 2.5 mg/kg/injection, schedule: Q01DX009 (ip), vehicle: saline) of the same compound?
Its T/C is 135 % of control.

And the T/C (dose: 3.0 mg/kg/injection, schedule: Q01DX009 (ip), vehicle: saline)?
Its T/C is 146 % of control.

And the T/C (dose: 3.0 mg/kg/injection, schedule: Q01DX009 (oral), vehicle: saline)?
Its T/C is 137 % of control.

What about the T/C (dose: 3.0 mg/kg/injection, schedule: Q01DX015 (im), vehicle: saline) of the same compound?
Its T/C is 131 % of control.

What about the T/C (dose: 3.0 mg/kg/injection, schedule: Q01DX015 (sc), vehicle: saline) of the same compound?
Its T/C is 134 % of control.

And the T/C (dose: 3.0 mg/kg/injection, schedule: Q## X024 (oral), vehicle: saline)?
The T/C was 136 % of control.

What about the T/C (dose: 5.0 mg/kg/injection, schedule: Q01DX009 (ip), vehicle: saline) of the same compound?
The T/C was 147 % of control.

And the T/C (dose: 5.0 mg/kg/injection, schedule: Q01DX015 (ip), vehicle: carboxymethylcellulose (CMC))?
Its T/C is 145 % of control.

And the T/C (dose: 6.0 mg/kg/injection, schedule: Q01DX009 (ip), vehicle: saline)?
The T/C was 126 % of control.

And the T/C (dose: 6.0 mg/kg/injection, schedule: Q01DX009 (oral), vehicle: saline)?
The T/C was 139 % of control.

What about the T/C (dose: 6.0 mg/kg/injection, schedule: Q01DX015 (oral), vehicle: saline) of the same compound?
Its T/C is 131 % of control.

And the T/C (dose: 7.0 mg/kg/injection, schedule: Q01DX Z (ip), vehicle: methylcellulose (MC))?
The T/C was 146 % of control.

What about the T/C (dose: 8.0 mg/kg/injection, schedule: Q01DX009 (ip), vehicle: saline with Tween-80) of the same compound?
The T/C was 130 % of control.

What about the T/C (dose: 8.0 mg/kg/injection, schedule: Q04DX003 (ip), vehicle: saline) of the same compound?
The T/C was 127 % of control [4 of 6 alive].

And the T/C (dose: 10.5 mg/kg/injection, schedule: Q## X008 (oral), vehicle: saline)?
The T/C was 128 % of control.

And the T/C (dose: 12.0 mg/kg/injection, schedule: Q01DX005 (oral), vehicle: saline)?
The T/C was 143 % of control.

And the T/C (dose: 12.0 mg/kg/injection, schedule: Q01DX009 (oral), vehicle: saline)?
The T/C was 145 % of control.

And the T/C (dose: 12.0 mg/kg/injection, schedule: Q01DX015 (oral), vehicle: saline)?
Its T/C is 131 % of control.

What about the T/C (dose: 12.0 mg/kg/injection, schedule: Q## X003 (oral), vehicle: saline) of the same compound?
The T/C was 138 % of control.

What about the T/C (dose: 16.0 mg/kg/injection, schedule: Q04DX003 (ip), vehicle: saline) of the same compound?
Its T/C is 140 % of control.

And the T/C (dose: 21.0 mg/kg/injection, schedule: Q## X008 (oral), vehicle: saline)?
The T/C was 125 % of control.

What about the T/C (dose: 24.0 mg/kg/injection, schedule: Q01DX005 (oral), vehicle: saline) of the same compound?
Its T/C is 137 % of control.

What about the T/C (dose: 24.0 mg/kg/injection, schedule: Q01DX006 (iv), vehicle: saline) of the same compound?
The T/C was 142 % of control.

And the T/C (dose: 24.0 mg/kg/injection, schedule: Q01DX015 (ip), vehicle: carboxymethylcellulose (CMC))?
Its T/C is 129 and 137 % of control.

And the T/C (dose: 24.0 mg/kg/injection, schedule: Q01DX015 (sc), vehicle: saline)?
The T/C was 142 % of control.

What about the survivor count (dose: 24.0 mg/kg/injection, schedule: Q01DX Z (ip), vehicle: methylcellulose (MC)) of the same compound?
Its survivor count is 6 of 6.

What about the T/C (dose: 24.0 mg/kg/injection, schedule: Q## X003 (oral), vehicle: saline) of the same compound?
The T/C was 147 % of control.

And the survivor count (dose: 24.0 mg/kg/injection, schedule: Q## X040 (oral), vehicle: saline)?
Its survivor count is 5 of 6.

What about the T/C (dose: 42.0 mg/kg/injection, schedule: Q01DX001 (oral), vehicle: saline) of the same compound?
Its T/C is 127 % of control.

And the T/C (dose: 42.0 mg/kg/injection, schedule: Q## X008 (oral), vehicle: saline)?
The T/C was 127 % of control.

What about the T/C (dose: 48.0 mg/kg/injection, schedule: Q01DX006 (iv), vehicle: saline) of the same compound?
The T/C was 140 % of control.

And the survivor count (dose: 48.0 mg/kg/injection, schedule: Q## X040 (oral), vehicle: saline)?
The survivor count was 4 of 6.

What about the T/C (dose: 84.0 mg/kg/injection, schedule: Q## X008 (oral), vehicle: saline) of the same compound?
Its T/C is 135 % of control.

What about the survivor count (dose: 96.0 mg/kg/injection, schedule: Q01DX015 (ip), vehicle: carboxymethylcellulose (CMC)) of the same compound?
Its survivor count is 5 of 6.

What about the survivor count (dose: 96.0 mg/kg/injection, schedule: Q01DX015 (ip), vehicle: saline) of the same compound?
The survivor count was 6 of 6.

And the T/C (dose: 96.0 mg/kg/injection, schedule: Q## X003 (oral), vehicle: saline)?
Its T/C is 145 % of control.

What about the survivor count (dose: 96.0 mg/kg/injection, schedule: Q## X040 (oral), vehicle: saline) of the same compound?
Its survivor count is 6 of 6.

What about the T/C (dose: 178.0 mg/kg/injection, schedule: Q01DX001 (oral), vehicle: saline) of the same compound?
Its T/C is 128 % of control.

What about the T/C (dose: 178.0 mg/kg/injection, schedule: Q## X008 (oral), vehicle: saline) of the same compound?
The T/C was 143 % of control.

And the survivor count (dose: 192.0 mg/kg/injection, schedule: Q01DX005 (oral), vehicle: saline)?
Its survivor count is 6 of 6.

And the survivor count (dose: 192.0 mg/kg/injection, schedule: Q01DX009 (oral), vehicle: saline)?
Its survivor count is 10 of 10.

What about the survivor count (dose: 192.0 mg/kg/injection, schedule: Q01DX015 (im), vehicle: saline) of the same compound?
Its survivor count is 6 of 6.

What about the survivor count (dose: 192.0 mg/kg/injection, schedule: Q01DX015 (ip), vehicle: saline) of the same compound?
The survivor count was 3 of 6.

And the survivor count (dose: 192.0 mg/kg/injection, schedule: Q01DX015 (oral), vehicle: saline)?
Its survivor count is 5 of 6.

And the survivor count (dose: 192.0 mg/kg/injection, schedule: Q01DX015 (sc), vehicle: saline)?
The survivor count was 6 of 6.

What about the T/C (dose: 192.0 mg/kg/injection, schedule: Q## X003 (oral), vehicle: saline) of the same compound?
Its T/C is 135 % of control.

And the survivor count (dose: 192.0 mg/kg/injection, schedule: Q## X040 (oral), vehicle: saline)?
Its survivor count is 5 of 6.

What about the T/C (dose: 356.0 mg/kg/injection, schedule: Q01DX001 (oral), vehicle: saline) of the same compound?
Its T/C is 147 % of control.

And the survivor count (dose: 384.0 mg/kg/injection, schedule: Q01DX005 (oral), vehicle: saline)?
The survivor count was 10 of 10.

And the survivor count (dose: 384.0 mg/kg/injection, schedule: Q01DX009 (oral), vehicle: saline)?
The survivor count was 10 of 10.

And the survivor count (dose: 384.0 mg/kg/injection, schedule: Q01DX015 (im), vehicle: saline)?
The survivor count was 1 of 6.

What about the survivor count (dose: 384.0 mg/kg/injection, schedule: Q01DX015 (ip), vehicle: saline) of the same compound?
Its survivor count is 0 of 6.

And the survivor count (dose: 384.0 mg/kg/injection, schedule: Q01DX015 (oral), vehicle: saline)?
The survivor count was 3 of 6.

What about the survivor count (dose: 384.0 mg/kg/injection, schedule: Q01DX015 (sc), vehicle: saline) of the same compound?
Its survivor count is 6 of 6.

And the survivor count (dose: 384.0 mg/kg/injection, schedule: Q## X040 (oral), vehicle: saline)?
The survivor count was 2 of 6.

And the survivor count (dose: 712.0 mg/kg/injection, schedule: Q## X008 (oral), vehicle: saline)?
Its survivor count is 9 of 10.

And the survivor count (dose: 768.0 mg/kg/injection, schedule: Q01DX005 (oral), vehicle: saline)?
The survivor count was 9 of 10.

And the survivor count (dose: 768.0 mg/kg/injection, schedule: Q## X024 (oral), vehicle: saline)?
Its survivor count is 3 of 10.

What about the survivor count (dose: 1000.0 mg/kg/injection, schedule: Q## X008 (oral), vehicle: saline) of the same compound?
Its survivor count is 3 of 10.

And the survivor count (dose: 1000.0 mg/kg/injection, schedule: Q## X024 (oral), vehicle: saline)?
The survivor count was 6 of 10.
